{"source": "PubChem BioAssay AID1224829 (NIAID, 2016)", "test": "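Secondary check of hits that alter LPS-induced p65 translocation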 (follow-up of hits)", "cell system": "mouse RAW264.7 G9 macrophage reporter cells", "reagent": "single siRNA against mouse genes, 100 nM", "timing": "2 days of siRNA knock-down, then 40 min of LPS before fixing", "challenge": "LPS (Salmonella minnesota R595) at 10 ng/ml", "measured": "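High-content images after 40 min LPS exposure; GFP-p65 nucleus to surrounding ring signal ratio, normalised to plate median and non-targeting control wells, expressed as z-score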", "reading the numbers": "p65 translocation z-score: higher = more nuclear NF-kappaB p65 after LPS", "call rule": "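An siRNA is called active when the mean z-score of its two replicates is above 2 or below -2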", "calls": "active = changed p65 translocation (either direction); inactive = no clear change", "note": "This is one part, drawn at random, of about 3,800 reagents. 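Calls cover raised and lowered translocation; gene median uses one vendor's three siRNAs; qiagen siRNAs acted more weakly than ambion siRNAs.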 Reagents against one gene are numbered here. Not all columns of the deposit are shown."}
{"Gene":"Idh3g","reagent no.":1,"siRNA vendor or control pool":"ambion single siRNA","p65 translocation z-score, replicate mean":1.51,"call":"inactive"}
{"Gene":"Idh3g","reagent no.":2,"siRNA vendor or control pool":"ambion single siRNA","p65 translocation z-score, replicate mean":-5.66,"call":"active"}
{"Gene":"Idh3g","reagent no.":3,"siRNA vendor or control pool":"ambion single siRNA","p65 translocation z-score, replicate mean":-3.9,"call":"active"}
{"Gene":"Idh3g","reagent no.":4,"siRNA vendor or control pool":"qiagen single siRNA","p65 translocation z-score, replicate mean":-0.496,"call":"inactive"}
{"Gene":"Idh3g","reagent no.":5,"siRNA vendor or control pool":"qiagen single siRNA","p65 translocation z-score, replicate mean":-2.26,"call":"active"}
{"Gene":"Idh3g","reagent no.":6,"siRNA vendor or control pool":"qiagen single siRNA","p65 translocation z-score, replicate mean":-2.14,"call":"active"}
{"Gene":"Adsl","reagent no.":1,"siRNA vendor or control pool":"ambion single siRNA","p65 translocation z-score, replicate mean":2.46,"call":"active"}
{"Gene":"Adsl","reagent no.":2,"siRNA vendor or control pool":"ambion single siRNA","p65 translocation z-score, replicate mean":-1.47,"call":"inactive"}
{"Gene":"Adsl","reagent no.":3,"siRNA vendor or control pool":"ambion single siRNA","p65 translocation z-score, replicate mean":-2.47,"call":"active"}
{"Gene":"Adsl","reagent no.":4,"siRNA vendor or control pool":"qiagen single siRNA","p65 translocation z-score, replicate mean":-0.443,"call":"inactive"}
{"Gene":"Adsl","reagent no.":5,"siRNA vendor or control pool":"qiagen single siRNA","p65 translocation z-score, replicate mean":1.02,"call":"inactive"}
{"Gene":"Adsl","reagent no.":6,"siRNA vendor or control pool":"qiagen single siRNA","p65 translocation z-score, replicate mean":0.565,"call":"inactive"}

A stretch taken from the entries so far, for reference:
{"Gene":"Idh3g","reagent no.":3,"siRNA vendor or control pool":"ambion single siRNA","p65 translocation z-score, replicate mean":-3.9,"call":"active"}
{"Gene":"Idh3g","reagent no.":4,"siRNA vendor or control pool":"qiagen single siRNA","p65 translocation z-score, replicate mean":-0.496,"call":"inactive"}

Additional records follow.
{"Gene":"Tpp1","reagent no.":1,"siRNA vendor or control pool":"ambion single siRNA","p65 translocation z-score, replicate mean":1.64,"call":"inactive"}
{"Gene":"Tpp1","reagent no.":2,"siRNA vendor or control pool":"ambion single siRNA","p65 translocation z-score, replicate mean":0.783,"call":"inactive"}
{"Gene":"Tpp1","reagent no.":3,"siRNA vendor or control pool":"ambion single siRNA","p65 translocation z-score, replicate mean":-2.54,"call":"active"}
{"Gene":"Etnppl","reagent no.":1,"siRNA vendor or control pool":"ambion single siRNA","p65 translocation z-score, replicate mean":-1.55,"call":"inactive"}
{"Gene":"Etnppl","reagent no.":2,"siRNA vendor or control pool":"ambion single siRNA","p65 translocation z-score, replicate mean":1.84,"call":"inactive"}
{"Gene":"Etnppl","reagent no.":3,"siRNA vendor or control pool":"ambion single siRNA","p65 translocation z-score, replicate mean":-4.58,"call":"active"}
{"Gene":"Etnppl","reagent no.":4,"siRNA vendor or control pool":"qiagen single siRNA","p65 translocation z-score, replicate mean":-0.678,"call":"inactive"}
{"Gene":"Etnppl","reagent no.":5,"siRNA vendor or control pool":"qiagen single siRNA","p65 translocation z-score, replicate mean":-0.0993,"call":"inactive"}
{"Gene":"Etnppl","reagent no.":6,"siRNA vendor or control pool":"qiagen single siRNA","p65 translocation z-score, replicate mean":-0.21,"call":"inactive"}
